Assay results: PMC7418988, “IgaA negatively regulates the Rcs Phosphorelay via contact with the RcsD Phosphotransfer Protein” (PLoS Genetics, 2020)
No constants are given. Whether binding was seen depends on the method and setting. Sequences can lack the tags named with a protein.

Key:
Test in all cases: two-hybrid; bacterial adenylate cyclase two-hybrid (BACTH): T18 and T25 fragments fused C-terminally to the two proteins, two plasmids in cyaA deficient E. coli BTH101; beta-galactosidase activity (Miller units) against fusion plus empty cognate vector as background; threshold for reliable interaction 4x over background; IgaA/RcsD also tested in rcsB, rcsC, rcsF and rcsD mutant hosts; in the rows the T25 fusion is the binder, the T18 fusion the target
[1] = biological target: T1, RcsC fused to the T18 or the T25 fragment of adenylate cyclase (E. coli) (UniProt P0DMC5)
T1 sequence: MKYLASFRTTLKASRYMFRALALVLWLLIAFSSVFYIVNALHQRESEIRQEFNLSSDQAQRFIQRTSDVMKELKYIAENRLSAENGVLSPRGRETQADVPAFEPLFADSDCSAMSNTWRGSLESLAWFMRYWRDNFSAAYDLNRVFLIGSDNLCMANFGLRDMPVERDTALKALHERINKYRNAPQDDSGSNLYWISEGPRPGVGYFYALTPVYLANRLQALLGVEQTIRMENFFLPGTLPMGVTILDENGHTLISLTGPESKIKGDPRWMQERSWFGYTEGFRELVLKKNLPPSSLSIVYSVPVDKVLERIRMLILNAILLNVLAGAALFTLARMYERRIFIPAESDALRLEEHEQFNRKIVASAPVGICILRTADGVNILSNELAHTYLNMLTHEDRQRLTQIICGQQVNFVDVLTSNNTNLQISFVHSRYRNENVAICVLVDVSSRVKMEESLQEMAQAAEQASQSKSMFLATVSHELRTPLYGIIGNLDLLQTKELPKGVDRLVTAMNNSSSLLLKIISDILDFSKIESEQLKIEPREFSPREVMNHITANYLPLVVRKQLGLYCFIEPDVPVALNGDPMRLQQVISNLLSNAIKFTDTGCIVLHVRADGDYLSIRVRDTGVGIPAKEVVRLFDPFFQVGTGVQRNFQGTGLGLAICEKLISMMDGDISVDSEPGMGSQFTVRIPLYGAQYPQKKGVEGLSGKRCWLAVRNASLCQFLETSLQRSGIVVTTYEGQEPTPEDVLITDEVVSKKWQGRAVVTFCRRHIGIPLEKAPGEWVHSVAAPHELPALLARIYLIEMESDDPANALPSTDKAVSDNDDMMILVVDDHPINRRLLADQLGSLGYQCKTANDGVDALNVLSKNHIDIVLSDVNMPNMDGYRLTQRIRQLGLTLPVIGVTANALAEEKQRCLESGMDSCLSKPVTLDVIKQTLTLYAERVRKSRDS

[2] = biological target: T2, RcsC_(Δ45-314)-T18 (E. coli) (UniProt P0DMC5)
T2 sequence: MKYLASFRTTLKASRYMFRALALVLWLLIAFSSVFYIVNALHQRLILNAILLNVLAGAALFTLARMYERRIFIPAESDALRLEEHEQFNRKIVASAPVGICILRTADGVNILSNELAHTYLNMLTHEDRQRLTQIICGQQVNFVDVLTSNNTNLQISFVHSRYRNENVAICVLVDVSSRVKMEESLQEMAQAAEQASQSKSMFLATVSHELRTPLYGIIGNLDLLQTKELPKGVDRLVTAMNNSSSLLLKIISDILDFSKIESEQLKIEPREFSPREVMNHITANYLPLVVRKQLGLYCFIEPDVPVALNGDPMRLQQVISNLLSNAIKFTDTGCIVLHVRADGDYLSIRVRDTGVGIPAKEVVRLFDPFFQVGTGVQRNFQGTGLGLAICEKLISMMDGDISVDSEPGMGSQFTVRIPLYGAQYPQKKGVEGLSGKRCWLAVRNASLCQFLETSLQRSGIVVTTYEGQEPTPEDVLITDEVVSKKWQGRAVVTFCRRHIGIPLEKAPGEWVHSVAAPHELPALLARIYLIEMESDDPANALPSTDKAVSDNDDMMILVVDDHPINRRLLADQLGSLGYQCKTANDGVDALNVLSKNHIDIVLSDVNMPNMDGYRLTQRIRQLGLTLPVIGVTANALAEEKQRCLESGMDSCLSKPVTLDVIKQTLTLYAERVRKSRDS

[3] = biological target: T3, RcsC_(326-C)-T18 (E. coli) (UniProt P0DMC5)
T3 sequence: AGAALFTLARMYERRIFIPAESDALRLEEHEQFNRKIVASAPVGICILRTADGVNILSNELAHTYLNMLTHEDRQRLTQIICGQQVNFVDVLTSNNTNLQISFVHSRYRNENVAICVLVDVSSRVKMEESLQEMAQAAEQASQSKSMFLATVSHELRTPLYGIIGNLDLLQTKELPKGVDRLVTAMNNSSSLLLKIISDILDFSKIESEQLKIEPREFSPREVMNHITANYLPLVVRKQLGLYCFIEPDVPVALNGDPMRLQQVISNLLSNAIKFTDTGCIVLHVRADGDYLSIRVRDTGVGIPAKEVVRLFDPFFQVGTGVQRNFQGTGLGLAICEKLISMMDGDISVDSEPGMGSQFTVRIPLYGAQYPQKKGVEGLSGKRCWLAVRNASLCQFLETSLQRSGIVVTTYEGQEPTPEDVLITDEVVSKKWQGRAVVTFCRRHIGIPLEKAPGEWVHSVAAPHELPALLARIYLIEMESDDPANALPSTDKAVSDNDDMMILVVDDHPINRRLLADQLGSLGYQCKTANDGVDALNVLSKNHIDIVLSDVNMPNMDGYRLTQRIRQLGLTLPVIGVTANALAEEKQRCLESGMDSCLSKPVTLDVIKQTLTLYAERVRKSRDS

Measured: binding

B1: IgaA fused to the T18 or the T25 fragment of adenylate cyclase (natural protein, E. coli, UniProt P45800 1-711, looked up)
chain: MSTIVIFLAALLACSLLAGWLIKVRSRRRQLPWTNAFADAQTRKLTPEERSAVENYLESLTQVLQVPGPTGASAAPISLALNAESNNVMMLTHAITRYGISTDDPNKWRYYLDSVEVHLPPFWEQYINDENTVELIHTDSLPLVISLNGHTLQEYMQETRSYALQPVPSTQASIRGEESEQIELLNIRKETHEEYALSRPRGLREALLIVASFLMFFFCLITPDVFVPWLAGGALLLLGAGLWGLFAPPAKSSLREIHCLRGTPRRWGLFGENDQEQINNISLGIIDLVYPAHWQPYIAQDLGQQTDIDIYLDRHVVRQGRYLSLHDEVKNFPLQHWLRSTIIAAGSLLVLFMLLFWIPLDMPLKFTLSWMKGAQTIEATSVKQLADAGVRVGDTLRISGTGMCNIRTSGTWSAKTNSPFLPFDCSQIIWNDARSLPLPESELVNKATALTEAVNRQLHPKPEDESRVSASLRSAIQKSGMVLLDDFGDIVLKTADLCSAKDDCVRLKNALVNLGNSKDWDALVKRANAGKLDGVNVLLRPVSAESLDNLVATSTAPFITHETARAAQSLNSPAPGGFLIVSDEGSDFVDQPWPSASLYDYPPQEQWNAFQKLAQMLMHTPFNAEGIVTKIFTDANGTQHIGLHPIPDRSGLWRYLSTTLLLLTMLGSAIYNGVQAWRRYQRHRTRMMEIQAYYESCLNPQLITPSESLIE
notes: IgaA (E. coli homolog, gene yrfF), five-pass inner membrane protein; Two fusions of the same protein, each chain with ONE of the two tags: T18 (pEAW1) or T25 (pEAW2); also called YrfF; IgaA-T18; source: bacterial two-hybrid (BACTH) fusion, expressed from a plasmid in E. coli BTH101; not shown: T18 fragment of Bordetella adenylate cyclase (Cya), C-terminal, kept; T25 fragment of Bordetella …
no binding: [1] | [2] | [3]
